This is one part of the list.

By UniProt entry, the sequences of proteins in these tests, tags left out. Where a name states a change or a piece, a line headed by the entry shows the natural chain unless it says otherwise.
UniProt Q96G97: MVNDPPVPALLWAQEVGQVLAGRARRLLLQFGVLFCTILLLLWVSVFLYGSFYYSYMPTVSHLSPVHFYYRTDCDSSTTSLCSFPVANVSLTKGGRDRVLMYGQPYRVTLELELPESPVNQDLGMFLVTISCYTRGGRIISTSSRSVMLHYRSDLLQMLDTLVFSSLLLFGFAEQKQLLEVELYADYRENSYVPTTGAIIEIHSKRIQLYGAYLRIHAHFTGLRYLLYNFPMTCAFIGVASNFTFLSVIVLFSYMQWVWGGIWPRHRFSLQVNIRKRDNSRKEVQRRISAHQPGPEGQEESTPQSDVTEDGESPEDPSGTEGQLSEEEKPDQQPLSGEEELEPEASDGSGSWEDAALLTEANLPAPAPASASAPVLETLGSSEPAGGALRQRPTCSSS
UniProt P61769, whole entry, looked up: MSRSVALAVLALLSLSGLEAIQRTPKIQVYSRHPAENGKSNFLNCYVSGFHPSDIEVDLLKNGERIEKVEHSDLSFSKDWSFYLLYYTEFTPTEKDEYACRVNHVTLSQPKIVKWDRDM
UniProt O00499: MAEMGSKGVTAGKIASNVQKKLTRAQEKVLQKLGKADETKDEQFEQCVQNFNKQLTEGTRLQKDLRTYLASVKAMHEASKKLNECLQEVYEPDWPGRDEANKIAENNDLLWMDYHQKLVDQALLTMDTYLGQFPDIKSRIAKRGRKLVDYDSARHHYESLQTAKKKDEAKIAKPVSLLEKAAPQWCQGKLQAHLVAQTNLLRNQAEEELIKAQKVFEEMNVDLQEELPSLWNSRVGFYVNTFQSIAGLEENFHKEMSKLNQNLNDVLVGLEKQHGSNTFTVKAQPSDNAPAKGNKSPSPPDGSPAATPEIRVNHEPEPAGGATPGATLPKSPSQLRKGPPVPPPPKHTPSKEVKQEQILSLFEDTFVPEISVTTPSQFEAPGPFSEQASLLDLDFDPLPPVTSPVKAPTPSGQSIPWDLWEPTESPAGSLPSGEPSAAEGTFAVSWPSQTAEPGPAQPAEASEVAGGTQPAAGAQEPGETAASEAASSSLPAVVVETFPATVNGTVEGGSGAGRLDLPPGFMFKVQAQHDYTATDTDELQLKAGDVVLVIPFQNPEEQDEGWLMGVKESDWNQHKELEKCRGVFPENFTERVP
UniProt Q96IK1: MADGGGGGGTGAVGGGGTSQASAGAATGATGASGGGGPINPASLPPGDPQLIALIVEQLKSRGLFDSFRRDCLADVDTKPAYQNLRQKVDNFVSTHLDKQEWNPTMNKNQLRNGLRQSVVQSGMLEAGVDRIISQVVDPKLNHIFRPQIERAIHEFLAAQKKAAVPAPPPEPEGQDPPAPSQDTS
UniProt O43521, whole entry, looked up: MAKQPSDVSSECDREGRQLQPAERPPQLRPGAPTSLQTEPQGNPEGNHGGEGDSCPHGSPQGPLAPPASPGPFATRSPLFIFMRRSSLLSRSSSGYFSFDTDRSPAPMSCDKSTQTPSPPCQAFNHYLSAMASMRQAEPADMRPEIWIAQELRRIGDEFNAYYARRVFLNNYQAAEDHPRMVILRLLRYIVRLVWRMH
UniProt Q8IXM2, whole entry, looked up: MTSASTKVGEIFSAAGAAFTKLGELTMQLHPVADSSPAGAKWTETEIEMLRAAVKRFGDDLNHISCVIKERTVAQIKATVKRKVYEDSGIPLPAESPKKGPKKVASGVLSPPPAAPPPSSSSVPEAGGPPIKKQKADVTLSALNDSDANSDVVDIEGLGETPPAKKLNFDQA
UniProt Q12983, whole entry, looked up: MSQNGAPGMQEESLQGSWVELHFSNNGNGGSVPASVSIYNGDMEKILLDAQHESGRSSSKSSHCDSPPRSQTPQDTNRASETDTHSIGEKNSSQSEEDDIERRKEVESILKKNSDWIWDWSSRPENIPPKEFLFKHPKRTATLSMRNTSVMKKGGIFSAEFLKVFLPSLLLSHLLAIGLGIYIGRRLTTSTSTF
UniProt Q8TBE0: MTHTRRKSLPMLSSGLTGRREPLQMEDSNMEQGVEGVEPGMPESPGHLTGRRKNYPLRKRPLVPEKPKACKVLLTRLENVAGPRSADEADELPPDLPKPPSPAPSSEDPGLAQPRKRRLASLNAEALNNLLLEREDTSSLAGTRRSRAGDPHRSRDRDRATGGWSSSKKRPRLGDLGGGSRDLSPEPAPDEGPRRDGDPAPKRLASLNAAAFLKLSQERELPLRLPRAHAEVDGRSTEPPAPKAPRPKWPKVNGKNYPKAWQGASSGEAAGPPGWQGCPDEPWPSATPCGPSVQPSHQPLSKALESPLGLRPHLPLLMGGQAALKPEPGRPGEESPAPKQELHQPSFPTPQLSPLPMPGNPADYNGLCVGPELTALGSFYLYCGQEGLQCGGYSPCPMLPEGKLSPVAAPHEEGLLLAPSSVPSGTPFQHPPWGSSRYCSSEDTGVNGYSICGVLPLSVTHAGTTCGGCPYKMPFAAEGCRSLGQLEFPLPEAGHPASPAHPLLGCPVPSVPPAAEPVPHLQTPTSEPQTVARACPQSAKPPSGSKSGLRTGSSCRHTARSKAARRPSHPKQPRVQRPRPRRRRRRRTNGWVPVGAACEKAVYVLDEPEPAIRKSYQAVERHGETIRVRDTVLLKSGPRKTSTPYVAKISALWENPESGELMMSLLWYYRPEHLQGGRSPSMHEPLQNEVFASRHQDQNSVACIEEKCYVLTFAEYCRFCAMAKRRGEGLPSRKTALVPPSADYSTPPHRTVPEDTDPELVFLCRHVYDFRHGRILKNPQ
UniProt Q9NYM9: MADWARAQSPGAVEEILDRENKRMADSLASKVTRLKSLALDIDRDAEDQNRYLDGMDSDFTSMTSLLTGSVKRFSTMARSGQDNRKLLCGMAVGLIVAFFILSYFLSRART
UniProt H3BUF6: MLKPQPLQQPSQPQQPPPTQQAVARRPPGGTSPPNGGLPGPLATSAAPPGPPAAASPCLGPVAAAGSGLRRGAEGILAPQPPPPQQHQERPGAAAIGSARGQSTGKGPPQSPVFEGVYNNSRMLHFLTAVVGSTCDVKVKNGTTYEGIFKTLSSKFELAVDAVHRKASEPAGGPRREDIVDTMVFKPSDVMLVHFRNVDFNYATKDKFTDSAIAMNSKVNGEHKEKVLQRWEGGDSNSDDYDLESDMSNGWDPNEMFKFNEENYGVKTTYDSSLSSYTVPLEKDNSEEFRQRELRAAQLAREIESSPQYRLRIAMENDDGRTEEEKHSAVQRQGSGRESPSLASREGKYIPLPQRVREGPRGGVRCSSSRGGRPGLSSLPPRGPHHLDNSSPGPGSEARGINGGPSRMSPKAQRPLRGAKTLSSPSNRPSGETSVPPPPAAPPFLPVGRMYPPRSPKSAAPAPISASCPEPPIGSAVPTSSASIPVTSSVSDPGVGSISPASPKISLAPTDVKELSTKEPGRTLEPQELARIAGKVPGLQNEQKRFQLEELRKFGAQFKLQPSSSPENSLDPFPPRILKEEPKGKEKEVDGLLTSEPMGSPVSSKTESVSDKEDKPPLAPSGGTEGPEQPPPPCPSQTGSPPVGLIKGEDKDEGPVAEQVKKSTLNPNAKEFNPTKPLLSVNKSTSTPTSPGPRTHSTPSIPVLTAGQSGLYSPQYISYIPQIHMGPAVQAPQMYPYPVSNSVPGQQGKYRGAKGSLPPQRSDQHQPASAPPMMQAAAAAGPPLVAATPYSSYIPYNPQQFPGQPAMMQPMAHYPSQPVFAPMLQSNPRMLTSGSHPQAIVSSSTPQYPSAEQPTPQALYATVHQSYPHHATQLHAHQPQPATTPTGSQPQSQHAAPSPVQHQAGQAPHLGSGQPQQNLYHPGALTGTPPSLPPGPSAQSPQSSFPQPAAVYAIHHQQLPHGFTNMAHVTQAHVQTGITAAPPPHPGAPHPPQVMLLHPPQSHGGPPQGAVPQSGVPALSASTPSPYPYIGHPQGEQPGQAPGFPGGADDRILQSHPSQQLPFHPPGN
UniProt Q9NWD9: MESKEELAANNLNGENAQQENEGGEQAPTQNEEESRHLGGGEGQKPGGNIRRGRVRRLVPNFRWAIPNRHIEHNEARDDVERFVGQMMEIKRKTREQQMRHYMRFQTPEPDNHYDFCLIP
UniProt Q9HB09: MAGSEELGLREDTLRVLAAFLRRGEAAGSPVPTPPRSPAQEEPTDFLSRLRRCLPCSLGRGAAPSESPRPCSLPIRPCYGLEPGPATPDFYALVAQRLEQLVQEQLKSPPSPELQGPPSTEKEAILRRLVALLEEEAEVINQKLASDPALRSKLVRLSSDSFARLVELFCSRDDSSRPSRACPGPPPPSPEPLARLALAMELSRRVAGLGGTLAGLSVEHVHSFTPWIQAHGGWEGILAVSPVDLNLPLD
UniProt O75363: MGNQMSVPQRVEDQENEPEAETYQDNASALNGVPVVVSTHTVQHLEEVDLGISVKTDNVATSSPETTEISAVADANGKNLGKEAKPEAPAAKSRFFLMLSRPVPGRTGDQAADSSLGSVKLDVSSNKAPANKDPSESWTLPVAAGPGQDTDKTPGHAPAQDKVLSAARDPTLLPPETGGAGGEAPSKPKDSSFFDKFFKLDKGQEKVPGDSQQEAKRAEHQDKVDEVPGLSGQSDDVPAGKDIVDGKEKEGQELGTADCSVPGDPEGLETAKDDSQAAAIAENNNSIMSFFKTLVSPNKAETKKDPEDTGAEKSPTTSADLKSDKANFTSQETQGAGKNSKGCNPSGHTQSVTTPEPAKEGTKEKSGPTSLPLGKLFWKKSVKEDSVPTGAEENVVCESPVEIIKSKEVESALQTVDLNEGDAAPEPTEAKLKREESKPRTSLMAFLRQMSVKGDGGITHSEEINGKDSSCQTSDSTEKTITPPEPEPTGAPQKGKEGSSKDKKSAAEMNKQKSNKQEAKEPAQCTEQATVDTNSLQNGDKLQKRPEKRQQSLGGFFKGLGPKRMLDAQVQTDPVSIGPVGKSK
UniProt Q4VC05, whole entry, looked up: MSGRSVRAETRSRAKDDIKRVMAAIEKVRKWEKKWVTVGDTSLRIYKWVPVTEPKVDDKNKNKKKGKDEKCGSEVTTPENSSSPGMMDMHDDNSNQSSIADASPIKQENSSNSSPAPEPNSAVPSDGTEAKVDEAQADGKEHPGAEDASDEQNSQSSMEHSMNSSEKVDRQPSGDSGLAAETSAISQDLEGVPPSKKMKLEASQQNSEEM
UniProt Q9H7T9: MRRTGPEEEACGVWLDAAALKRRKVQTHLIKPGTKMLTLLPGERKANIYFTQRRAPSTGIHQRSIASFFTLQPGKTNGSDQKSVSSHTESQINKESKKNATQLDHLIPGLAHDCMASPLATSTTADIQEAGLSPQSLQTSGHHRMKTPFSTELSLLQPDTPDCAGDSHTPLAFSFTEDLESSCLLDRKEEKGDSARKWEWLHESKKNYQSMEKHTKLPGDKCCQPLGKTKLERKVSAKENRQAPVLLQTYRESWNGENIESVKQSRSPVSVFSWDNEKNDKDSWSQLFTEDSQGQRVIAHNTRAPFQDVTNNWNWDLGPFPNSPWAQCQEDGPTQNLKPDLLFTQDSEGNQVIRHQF
UniProt O60513: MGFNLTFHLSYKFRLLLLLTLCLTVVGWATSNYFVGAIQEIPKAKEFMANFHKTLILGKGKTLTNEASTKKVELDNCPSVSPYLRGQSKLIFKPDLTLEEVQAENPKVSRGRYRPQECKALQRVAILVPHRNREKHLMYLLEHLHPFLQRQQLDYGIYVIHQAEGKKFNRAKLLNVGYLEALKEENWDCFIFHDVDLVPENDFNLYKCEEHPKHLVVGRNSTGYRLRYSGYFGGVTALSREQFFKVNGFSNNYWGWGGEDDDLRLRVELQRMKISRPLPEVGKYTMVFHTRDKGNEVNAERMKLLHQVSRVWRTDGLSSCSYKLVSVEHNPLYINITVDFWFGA
UniProt O15169, whole entry, looked up: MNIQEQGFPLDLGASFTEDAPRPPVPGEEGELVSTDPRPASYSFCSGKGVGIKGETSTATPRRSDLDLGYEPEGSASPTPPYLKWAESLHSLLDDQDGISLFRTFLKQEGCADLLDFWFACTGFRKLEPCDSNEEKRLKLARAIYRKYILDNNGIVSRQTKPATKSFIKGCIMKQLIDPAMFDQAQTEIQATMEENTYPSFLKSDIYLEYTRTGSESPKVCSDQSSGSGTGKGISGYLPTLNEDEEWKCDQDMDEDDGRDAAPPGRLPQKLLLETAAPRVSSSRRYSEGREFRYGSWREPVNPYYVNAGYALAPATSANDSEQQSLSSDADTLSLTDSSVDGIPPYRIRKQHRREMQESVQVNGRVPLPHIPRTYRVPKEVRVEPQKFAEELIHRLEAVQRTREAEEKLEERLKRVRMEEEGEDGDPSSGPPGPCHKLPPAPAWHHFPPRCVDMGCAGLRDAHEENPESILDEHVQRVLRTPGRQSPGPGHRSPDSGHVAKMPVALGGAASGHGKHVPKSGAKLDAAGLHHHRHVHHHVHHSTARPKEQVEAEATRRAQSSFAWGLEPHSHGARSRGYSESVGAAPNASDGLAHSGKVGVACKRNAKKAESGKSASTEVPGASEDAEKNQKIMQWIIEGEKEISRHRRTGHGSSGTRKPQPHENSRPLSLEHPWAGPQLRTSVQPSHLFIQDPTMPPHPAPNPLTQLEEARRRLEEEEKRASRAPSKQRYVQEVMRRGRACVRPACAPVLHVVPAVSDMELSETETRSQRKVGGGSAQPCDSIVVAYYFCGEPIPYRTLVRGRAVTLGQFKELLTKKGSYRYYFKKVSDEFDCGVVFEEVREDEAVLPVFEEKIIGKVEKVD

Compound in the first assay: COc1cccc2cc(-c3nc([C@H]4CC[C@H](C(=O)O)CC4)n4ncnc(N)c34)[nH]c12
As to the kind of experiment: log2 fold change, soluble protein after heating vs DMSO (PISA); higher = thermal stabilisation; K562 cells, 10 uM, 30 min; active = over 0.2 and 3.5 SD of the protein, either way, in both replicates (recomputed). In outline:
(§1)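 K562 cells at 2×10^6 cells/mL were given 10 μM compound for 30 min. Aliquots then went through 3 min of heating across 48°C-58°C, were pooled, and were extracted in PBS with 0.5% NP-40 at 4°C, and the supernatant after 21,000xg for 90 min was quantified by TMTpro 16plex LC-MS/MS with channel sums equalised. Thermal stability relative to control samples, from duplicates, is given as log2 fold change.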
On to BSCL2 isoform 4 (UniProt Q96G97), for which the log2 fold change was inactive: 0.069.

On to BRAF, A0A2R8Y8E0, for which the log2 fold change was inactive: -0.326.

For BRMS1 (UniProt Q9HCU9), the log2 fold change was inactive: 0.007.

Turning to B2M (UniProt P61769), the log2 fold change is inactive: 0.045.

BIN1 (UniProt O00499): the log2 fold change was inactive: 0.012.

Take ATXN2 (UniProt F8W0B5): the log2 fold change was inactive: 0.062.

For BOD1 (UniProt Q96IK1), the log2 fold change was inactive: 0.029.

For BCL2L11 (UniProt O43521), the log2 fold change was inactive: 0.055.

Turning to BAP18 isoform 3 (UniProt Q8IXM2), the log2 fold change was inactive: 0.12.

BNIP3 (UniProt Q12983): the log2 fold change is inactive: 0.124.

BAHD1 (UniProt Q8TBE0): the log2 fold change was inactive: -0.008.

For AURKAIP1 (UniProt Q9NWT8), the log2 fold change was inactive: -0.151.

Consider BET1L (UniProt Q9NYM9), for which the log2 fold change was inactive: 0.085.

In the case of BCL7C (UniProt Q8WUZ0), the log2 fold change was inactive: -0.127.

For ATXN2L (UniProt H3BUF6), the log2 fold change is inactive: -0.056.

Turning to BEX4 (UniProt Q9NWD9), the log2 fold change was inactive: 0.027.

Turning to BFAR (UniProt Q9NZS9), the log2 fold change was inactive: -0.105.

Take BCL2L12 (UniProt Q9HB09): the log2 fold change is inactive: 0.044.

Consider BRD4 (UniProt O60885), for which the log2 fold change was inactive: -0.003.

Take BCL7C isoform 2 (UniProt Q8WUZ0): the log2 fold change was inactive: 0.057.

As for BCL7B (UniProt Q9BQE9), the log2 fold change was inactive: 0.134.

With BPNT1 (UniProt A6NF51), the log2 fold change was inactive: 0.065.

Regarding BNIP2 (UniProt H7C096), the log2 fold change was inactive: -0.021.

On to BCAS1 (UniProt O75363), for which the log2 fold change was inactive: 0.249.

Compound in a further assay: CS(=O)(=O)CCNCc1ccc(-c2ccc3ncnc(Nc4ccc(OCc5cccc(F)c5)c(Cl)c4)c3c2)o1 [lapatinib]
The assay is described as above. In outline:
as §1
On to BCL7A isoform 2 (UniProt Q4VC05), for which the log2 fold change was inactive: 0.052.

Consider BSCL2 isoform 4 (UniProt Q96G97), for which the log2 fold change is inactive: 0.048.

As for B2M (UniProt P61769), the log2 fold change is inactive: -0.065.

Consider BNIP3 (UniProt Q12983), for which the log2 fold change was inactive: 0.016.

Take BAHD1 (UniProt Q8TBE0): the log2 fold change was inactive: 0.03.

As for BET1L (UniProt Q9NYM9), the log2 fold change is inactive: 0.02.

Regarding AVEN (UniProt Q9NQS1), the log2 fold change was inactive: 0.035.

ATXN2L (UniProt H3BUF6): the log2 fold change was inactive: 0.066.

Turning to BFAR (UniProt Q9NZS9), the log2 fold change was inactive: 0.017.

Turning to BCL2L12 (UniProt Q9HB09), the log2 fold change is inactive: 0.019.

Regarding BRD4 (UniProt O60885), the log2 fold change is inactive: -0.039.

Consider AUNIP isoform 2 (UniProt Q9H7T9), for which the log2 fold change is inactive: 0.099.

For the target BCAS1 (UniProt O75363), the log2 fold change was inactive: -0.033.

Compound in another assay: CS(=O)(=O)N1CCN(Cc2cc3nc(-c4cccc5[nH]ncc45)nc(N4CCOCC4)c3s2)CC1 [pictilisib]
The assay is described as above. In outline: as §1
Turning to BSCL2 isoform 4 (UniProt Q96G97), the log2 fold change is inactive: 0.126.

Turning to BRMS1 (UniProt Q9HCU9), the log2 fold change was inactive: 0.042.

On to B2M (UniProt P61769), for which the log2 fold change is inactive: 0.067.

For the target ATXN2 (UniProt F8W0B5), the log2 fold change was inactive: 0.194.

Turning to ATRX (UniProt P46100), the log2 fold change is inactive: -0.039.

For the target BOD1 (UniProt Q96IK1), the log2 fold change was inactive: -0.025.

BCL2L11 (UniProt O43521): the log2 fold change is inactive: 0.254.

Turning to BAP18 isoform 3 (UniProt Q8IXM2), the log2 fold change is inactive: -0.093.

In the case of BNIP3 (UniProt Q12983), the log2 fold change was inactive: -0.04.

For the target BAHD1 (UniProt Q8TBE0), the log2 fold change was inactive: 0.168.

Consider AVEN (UniProt Q9NQS1), for which the log2 fold change is inactive: 0.031.

As to ATXN2L (UniProt H3BUF6), the log2 fold change was inactive: -0.359.

With B4GALT4 (UniProt O60513), the log2 fold change is inactive: 0.123.

In the case of BCL2L12 (UniProt Q9HB09), the log2 fold change was inactive: 0.004.

Regarding BRD4 (UniProt O60885), the log2 fold change is inactive: 0.161.

For AXIN1 (UniProt O15169), the log2 fold change is inactive: 0.111.

With BCAS1 (UniProt O75363), the log2 fold change is inactive: 0.04.
